Values from PubChem BioAssay AID1259254 (NCATS, 2017).
Test: 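Finding genes that stop cells copying their DNA twice in one cycle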 (primary screen). Cell system: human HCT116 colorectal cancer cells. Reagent: single siRNA against human genes. Time to read-out: 3 days. Detection: 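Nuclei stained with Hoechst and imaged; cell-cycle phase assigned by DNA content; G2 share scaled per plate, non-targeting siRNA 0%, GMNN siRNA 100%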. Reading the numbers: G2 robust z-score: higher = more G2 cells, more excess DNA replication. Call rule: 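An siRNA counts as active if its G2 robust z-score lies at least 5 MADs above the screen median; here such calls match roughly 38% of GMNN control or more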.
This is a random part of about 59,000 deposited reagents. About 1,550 of them (2.6%) count as active. 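G2 share is only a proxy for re-replication; each gene was hit by three separate siRNAs, and active genes were retested.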 Reagents against one gene are numbered here. Further read-outs or replicates are left out here. The record does not give: the amount of reagent.

no.	gene	siRNA no.	G2 robust z-score	activity call
1	OR6C76	1	-0.377	inactive
2	OR6C76	2	-0.698	inactive
3	OR6C76	3	-0.718	inactive
4	OR13F1	1	0.528	inactive
5	OR13F1	2	-0.793	inactive
6	OR13F1	3	-0.412	inactive
7	NUDT2	1	-0.0593	inactive
8	NUDT2	2	-1.74	inactive
9	NUDT2	3	-1.34	inactive
10	CLIC1	1	-0.567	inactive
11	CLIC1	2	-1.37	inactive
12	CLIC1	3	-0.998	inactive
13	OSBPL7	1	0.427	inactive
14	OSBPL7	2	-0.645	inactive
15	OSBPL7	3	-0.202	inactive
16	TMSB4Y	1	2.71	inactive
17	TMSB4Y	2	-0.789	inactive
18	TMSB4Y	3	-0.519	inactive
19	PODXL2	1	-0.701	inactive
20	PODXL2	2	1.24	inactive
21	PODXL2	3	0.346	inactive
22	BRSK1	1	0.0398	inactive
23	BRSK1	2	-0.903	inactive
24	BRSK1	3	-0.287	inactive
25	CCNYL2	1	2.7	inactive
26	CCNYL2	2	1.05	inactive
27	CCNYL2	3	-0.0369	inactive
28	LINC02817	1	-0.288	inactive
29	LINC02817	2	-0.217	inactive
30	LINC02817	3	0.367	inactive
31	PUSL1	1	0.895	inactive
32	PUSL1	2	-0.168	inactive
33	PUSL1	3	0.88	inactive
34	TNRC18P2	1	-0.787	inactive
35	TNRC18P2	2	1.78	inactive
36	TNRC18P2	3	-0.0327	inactive
37	ZNF141	1	-0.889	inactive
38	ZNF141	2	2.03	inactive
39	ZNF141	3	0.0317	inactive
40	SP3	1	-1.45	inactive
41	SP3	2	1.26	inactive
42	SP3	3	0.0422	inactive
43	PIK3CA	1	1.64	inactive
44	PIK3CA	2	2.92	inactive
45	PIK3CA	3	1.74	inactive
46	NPAS1	1	-0.2	inactive
47	NPAS1	2	3.33	inactive
48	NPAS1	3	-1.92	inactive
49	PICALM	1	-0.0301	inactive
50	PICALM	2	0.66	inactive
51	PICALM	3	0.945	inactive
52	FGD2	1	4.65	inactive
53	FGD2	2	-0.832	inactive
54	FGD2	3	0.556	inactive
55	GSE1	1	-0.944	inactive
56	GSE1	2	1.58	inactive
57	GSE1	3	0.826	inactive
58	LDLR	1	0.424	inactive
59	LDLR	2	1.09	inactive
60	LDLR	3	0.528	inactive
61	NUDT22	1	-0.603	inactive
62	NUDT22	2	-0.168	inactive
63	NUDT22	3	0.0234	inactive
64	GGN	1	1.49	inactive
65	GGN	2	3.43	inactive
66	GGN	3	-0.443	inactive
67	LOC731075	1	-0.439	inactive
68	LOC731075	2	-0.216	inactive
69	LOC731075	3	0.508	inactive
